Results are given in words; binding and its absence hold for the method and conditions named. In cells and extracts the contact can be indirect. Some results given as binding are weak or reduced against the parent protein; the word gives no strength.
T1: ubiquitin-specific protease 15 (USP15) (human (endogenous in MV4-11 and Kasumi-1)) (UniProt Q9Y4E8)
T1 sequence: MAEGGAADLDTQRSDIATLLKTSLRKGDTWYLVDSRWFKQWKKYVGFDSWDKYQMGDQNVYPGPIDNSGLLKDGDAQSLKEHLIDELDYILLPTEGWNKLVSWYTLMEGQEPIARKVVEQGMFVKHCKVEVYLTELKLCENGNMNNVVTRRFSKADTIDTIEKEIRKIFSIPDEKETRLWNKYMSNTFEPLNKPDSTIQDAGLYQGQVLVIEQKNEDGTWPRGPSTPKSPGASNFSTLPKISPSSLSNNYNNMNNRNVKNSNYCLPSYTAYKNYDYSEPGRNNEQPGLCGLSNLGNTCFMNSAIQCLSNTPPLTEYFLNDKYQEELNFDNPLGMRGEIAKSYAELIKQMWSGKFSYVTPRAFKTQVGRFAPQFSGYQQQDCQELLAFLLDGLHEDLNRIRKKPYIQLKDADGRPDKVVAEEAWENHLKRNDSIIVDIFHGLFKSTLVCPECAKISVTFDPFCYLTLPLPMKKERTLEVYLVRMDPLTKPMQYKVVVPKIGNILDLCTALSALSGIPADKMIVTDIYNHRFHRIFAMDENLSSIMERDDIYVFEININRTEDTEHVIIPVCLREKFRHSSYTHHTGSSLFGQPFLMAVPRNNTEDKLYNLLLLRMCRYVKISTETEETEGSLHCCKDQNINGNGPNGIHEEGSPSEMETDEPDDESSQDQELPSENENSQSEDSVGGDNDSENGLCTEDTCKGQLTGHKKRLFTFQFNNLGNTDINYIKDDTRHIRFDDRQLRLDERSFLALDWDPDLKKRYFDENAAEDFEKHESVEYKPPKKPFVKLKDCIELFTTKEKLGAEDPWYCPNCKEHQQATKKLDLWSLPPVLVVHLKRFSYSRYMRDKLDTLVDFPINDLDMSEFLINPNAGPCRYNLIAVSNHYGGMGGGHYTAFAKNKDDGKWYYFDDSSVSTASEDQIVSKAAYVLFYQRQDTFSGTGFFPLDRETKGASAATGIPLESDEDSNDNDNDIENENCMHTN

Protein sequences, listed by entry. Tags and fused reporters are not part of them.
UniProt P35637: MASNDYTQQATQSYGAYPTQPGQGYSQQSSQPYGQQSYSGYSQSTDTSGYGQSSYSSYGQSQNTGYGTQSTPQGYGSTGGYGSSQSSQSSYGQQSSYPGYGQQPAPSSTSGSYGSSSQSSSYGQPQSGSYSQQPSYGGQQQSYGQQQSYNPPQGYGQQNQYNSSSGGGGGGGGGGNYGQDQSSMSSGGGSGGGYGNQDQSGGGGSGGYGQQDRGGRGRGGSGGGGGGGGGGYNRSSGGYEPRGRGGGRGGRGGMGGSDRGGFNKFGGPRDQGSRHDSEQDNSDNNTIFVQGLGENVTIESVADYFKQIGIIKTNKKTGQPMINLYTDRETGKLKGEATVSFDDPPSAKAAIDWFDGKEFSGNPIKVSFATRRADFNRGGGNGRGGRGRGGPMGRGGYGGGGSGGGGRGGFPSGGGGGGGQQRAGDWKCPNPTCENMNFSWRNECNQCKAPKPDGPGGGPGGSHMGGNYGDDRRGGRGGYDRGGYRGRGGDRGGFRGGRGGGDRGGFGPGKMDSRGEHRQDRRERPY


How the values were obtained:
[1] = target: T1, ubiquitin-specific protease 15 (USP15) (human (endogenous in MV4-11 and Kasumi-1)); assay: co-IP; endogenous USP15 or endogenous FUS immunoprecipitated (protein A Dynabeads, overnight 4°C) from 0.1% Igepal lysates (150 mM NaCl, 20 mM Tris pH 7.5, 0.5 mM EDTA) of MV4-11 and Kasumi-1 cells, untreated or MMC-treated; immunoblot; IgG control
[2] = target: FUS (fused in sarcoma) (human (endogenous in MV4-11 and Kasumi-1)) (UniProt P35637); assay: as above

| binding [1] | binding [2] | Molecule |
| --- | --- | --- |
| binds |  | FUS (fused in sarcoma) (from UniProt P35637 1-526) |
|  | binds | ubiquitin-specific protease 15 (USP15) (enzyme, UniProt Q9Y4E8 1-981) MAEGGAADLDTQRSDIATLLKTSLRKGDTWYLVDSRWFKQWKKYVGFDSWDKYQMGDQNVYPGPIDNSGLLKDGDAQSLKEHLIDELDYILLPTEGWNKLVSWYTLMEGQEPIARKVVEQGMFVKHCKVEVYLTELKLCENGNMNNVVTRRFSKADTIDTIEKEIRKIFSIPDEKETRLWNKYMSNTFEPLNKPDSTIQDAGLYQGQVLVIEQKNEDGTWPRGPSTPKSPGASNFSTLPKISPSSLSNNYNNMNNRNVKNSNYCLPSYTAYKNYDYSEPGRNNEQPGLCGLSNLGNTCFMNSAIQCLSNTPPLTEYFLNDKYQEELNFDNPLGMRGEIAKSYAELIKQMWSGKFSYVTPRAFKTQVGRFAPQFSGYQQQDCQELLAFLLDGLHEDLNRIRKKPYIQLKDADGRPDKVVAEEAWENHLKRNDSIIVDIFHGLFKSTLVCPECAKISVTFDPFCYLTLPLPMKKERTLEVYLVRMDPLTKPMQYKVVVPKIGNILDLCTALSALSGIPADKMIVTDIYNHRFHRIFAMDENLSSIMERDDIYVFEININRTEDTEHVIIPVCLREKFRHSSYTHHTGSSLFGQPFLMAVPRNNTEDKLYNLLLLRMCRYVKISTETEETEGSLHCCKDQNINGNGPNGIHEEGSPSEMETDEPDDESSQDQELPSENENSQSEDSVGGDNDSENGLCTEDTCKGQLTGHKKRLFTFQFNNLGNTDINYIKDDTRHIRFDDRQLRLDERSFLALDWDPDLKKRYFDENAAEDFEKHESVEYKPPKKPFVKLKDCIELFTTKEKLGAEDPWYCPNCKEHQQATKKLDLWSLPPVLVVHLKRFSYSRYMRDKLDTLVDFPINDLDMSEFLINPNAGPCRYNLIAVSNHYGGMGGGHYTAFAKNKDDGKWYYFDDSSVSTASEDQIVSKAAYVLFYQRQDTFSGTGFFPLDRETKGASAATGIPLESDEDSNDNDNDIENENCMHTN |
